# According to PubChem BioAssay AID1347423 (Functional Genomics Laboratory (NCATS/FGL), 2020):
# Screen size: about 52,000 sequences; about 210 (0.4%) were called active.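 The calls were made as follows: active = gene whose silencing raises cell survival under the drug, median off-target-corrected z-score across its silencing RNAs 2 or more; inactive = the rest.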 Some of the results follow.
# Experiment: Resistance to Poly (ADP-Ribose) Polymerase inhibitor: Gene Identification via Genome-wide siRNA Screen
# Details: mouse BRCA2 R2336H ES cells, olaparib, CellTiter-Glo viability; active compounds read high
# In short: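 Mouse BRCA2 R2336H ES cells were reverse-transfected with siRNA (20 nM final), treated at 48 h with 500 nM olaparib, and read by CellTiter-Glo after 72 h. Scores: MAD-based z per siRNA, median per gene, seed off-target correction.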
row,Sequence,z-score
1,CCACCUAAGCCUACAAUGATT against Papolb,inactive: -0.955
2,GGGAGCUAUUUAUCCUAUUTT against AK129302,inactive: -1.45
3,GCAAUAGAAUCACAUAGGATT against 6230410P16Rik,inactive: 0.154
4,GGGAUACCAGCUGAAUUACTT against Inhbe,inactive: 0.345
5,GGGAUAAUUGUUUCUGAUUTT against 9430097H08Rik,inactive: -0.163
6,GGUUGGUCACCUAAUCCAGTT against Aldh2,inactive: 0.378
7,GGGACUAAGAUGAAGCUGATT against BC022623,inactive: -0.0877
8,GGAAACCUGAUAGAAGAGCTT against Dctn6,inactive: 0.255
9,GCUGAGAAGUGGUAUCUAATT against Lztfl1,inactive: -0.124
10,GGUGGUUCUGGUGUACAGUTT against Nxf1,inactive: -2.28
11,GCAAGCAUGCUCAUAAAGATT against Cast,inactive: 0.0438
12,CCAAGUAAUGGCUGAUCGCTT against B230382K22Rik,inactive: 0.354
13,GGAACUAUGGAGAUGGGACTT against Tcf4,inactive: 0.15
14,GGCCAGCAGAUGAAUACGATT against Shd,inactive: 0.321
15,CCGUCUUAAUUCUCACCUUTT against C78212,inactive: -2.12
16,GGCCUUAGAGAAAAUCUUUTT against Brd3,inactive: -0.0766
17,GGAAUGAGGAACCUUCUUCTT against Oprm1,inactive: 1.45
18,GGUUGGAUCAAGUUUAAAUTT against Tmsb4x,inactive: -0.706
19,GCCUUUCUCGCUACUUAGUTT against Cltc,inactive: -2.83
20,GGCUAGUUUUCUCUUAAAUTT against Usp1,inactive: -0.283
21,GGCAUGCUCAGGUCGUGUUTT against 1110008J03Rik,inactive: 0.207
22,CCCAUGGCUACUUUGAAUCTT against 1190006E07Rik,inactive: 0.91

# A run of entries from further up:
row,Sequence,z-score
13,GGAACUAUGGAGAUGGGACTT against Tcf4,inactive: 0.15
14,GGCCAGCAGAUGAAUACGATT against Shd,inactive: 0.321
15,CCGUCUUAAUUCUCACCUUTT against C78212,inactive: -2.12
16,GGCCUUAGAGAAAAUCUUUTT against Brd3,inactive: -0.0766

# The results go on.

row,Sequence,z-score
1,ACAGGUACACUUCUUUGUGTT against LOC433886,inactive: -0.808
2,GGAGCAUUAUCAACCACUATT against Olfr908,inactive: -0.473
3,GCGAGAAACAUCAAUGGAUTT against Psip1,inactive: -0.948
4,CCACGAAAGGUGGAGAGGUTT against Tmc2,inactive: -0.879
5,GGAAGAUGAACUUCGUACCTT against Slc4a2,inactive: -0.581
6,GCCCUUUCCUCAAAAAAAATT against 1700034E13Rik,inactive: 0.937
7,GGUUGUCGUCAACAAGAGCTT against AI507495,inactive: 0.289
8,GGCCGUUGGAAACACGAUCTT against Exosc6,inactive: -0.713
9,GGUAAACUGAGGCAACGACTT against Ddah2,inactive: 0.832
10,GGGAUUAGCACUUUUUCUUTT against 2700081O15Rik,inactive: 0.649
11,CCUUGAAAUUUGUUCAUACTT against Pgm2l1,inactive: -0.945
12,GGCUCAUCAAAGGAAGAAATT against Araf1,active: 1.44
13,GCUAUACAAAGGCUACUCUTT against 1700064K09Rik,inactive: -3.09
14,GCGACAUCUUACUUGAAAGTT against Fbxl3a,inactive: -0.456
15,GGACUUUACUACGUAGAUGTT against Psmb8,inactive: 0.147
16,GGAAGAACUUUUGGUUAUUTT against A230079K17Rik,inactive: -0.934
17,GGACUUAUGUGACUUAUGUTT against 1600029D21Rik,inactive: -0.105
18,GCAUUGUGGAGGAUGUACATT against C230029F24Rik,inactive: -1.18
19,CCGAAUAAAGAUUCAUUCATT against Adfp,inactive: 0.0229
20,GAUGCGGCUCCUUGGAAUUTT against Ostb,inactive: 1.6
21,GGUUUUGCAUUUCGGAGAATT against D10Ertd718e,inactive: -0.722
22,GGCAAUCUAUGAGAAAUUCTT against Rgs18,inactive: 1.13

row,Sequence,z-score
1,GCCUUUUUUGGAAAAUACCTT against Sulf1,inactive: -0.455
2,GGAUUUUUUUUCUUGUUGCTT against 9930021J17Rik,inactive: 0.982
3,CGAACCUGACUUUCACAGCTT against Il10rb,inactive: 1.05
4,CCAUUGAACAGCAGAUUGGTT against Atp7a,inactive: 0.192
5,GCUUGAGAAGACCACCAAATT against 4931420D14Rik,inactive: -1.26
6,GGGUUUUCCACGAUGGUUGTT against N28178,inactive: 1.01
7,CCAUUGAGUCUUUCAUUACTT against Ube2g1,inactive: 0.259
8,GGCGGUGAUCCAGGGUUUATT against Klc2,inactive: -0.0337
9,GGGCCAAGAUUAUAAGUAATT against Pld3,inactive: -1.11
10,GGAGGUCCUUAUCGCUUGGTT against 4932416F07Rik,inactive: 0.151
11,GGAUGGAAAGAAAAUCCUGTT against Pign,inactive: 0.354
12,GGGACUCGAGUUUCAUCUATT against Casc1,inactive: 2.59
13,GCUCUCACCUCCCUAUUGATT against Sult2b1,inactive: 0.0224
14,CGAGAAAAUGGAGCUCUAATT against Csf3,inactive: -0.738
15,GGUGGUAGCUCCAGUAUCUTT against Sdcbp2,inactive: -1.33
16,GGAACGGAACAUAAACCAGTT against Evpl,inactive: -1.85
17,GCCACAUUUUACAAUUUAGTT against Laptm4b,inactive: 0.607
18,GCUCUCGUGAGAGUUGCCATT against BC050196,inactive: 0.098
19,GGCAUUACUGGGUACCUACTT against Pte1,inactive: -1.34
20,GCCGUAGGUUAGAGAAUCGTT against Txnl6,inactive: 1.32
21,GGAAGUAACAGAGAAGGAATT against Pip3ap,inactive: 0.609
22,CCCAGAGGACAUUUAAGCUTT against Glb1,inactive: 0.112
